Source: PubChem BioAssay AID504444 (National Center for Advancing Translational Sciences (NCATS), 2011)
Hit rate of the full screen: of about 360,000 compounds, about 7,500 (2.1%) were called active. The inconclusive results got no clear call from the source; some entries with a clear call stand among them for comparison. Calls follow the shape of the dose curve; as a rule, active = well fitted inhibition curve with a large enough effect; inconclusive = small, poorly fitted or top-dose-only effect, or effect the other way; inactive = flat fitted curve, though single readings scatter. Potencies beside an inconclusive call are fits to weak or partial responses and may not hold up.

Experiment: Nrf2 qHTS screen for inhibitors; also: nearly all actives have a fitted effect of over 60% in size
Details: A549 ARE-Fluc reporter, luciferase luminescence, 18-24 h; activity change, negative = inhibition: at 46 µM (top of the series)
Summary of the method: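 In this cell-based qHTS, ARE-driven firefly luciferase in A549 cells reports Nrf2 activity; the luminescent signal after BugLite lysis is the measured value, with a prior CellTiter-Fluor read for cell health.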
% is scaled to controls: 0 for no effect and ±100 for the full control effect; potency is read from the fitted curve at half-maximal effect.

| SMILES | activity change, negative = inhibition | Potency |
| --- | --- | --- |
| COc1cccc(NC(=O)COc2coc(CN3CCc4ccccc4C3)cc2=O)c1 | inactive: 0.348% |  |
| COc1cccc(-c2csc(NC(C)=O)n2)c1 |  | inconclusive: 4.11 µM [activator, partial curve] |
| CC1C(=O)N(Cc2ccc([N+](=O)[O-])cc2)c2ccccc2N1C(=O)c1c(F)cccc1F (configuration not stated) |  | inconclusive: 23.1 µM [falling, partial curve, poor fit] |
| Cc1c(C(=O)Nc2nonc2-c2ccc(F)cc2)oc2ccc(F)cc12 |  | inconclusive: 29.1 µM [falling, single point] |
| N#CC1=C(N)Oc2n[nH]c(-c3ccccc3)c2C12C(=O)Nc1ccccc12 (configuration not stated) |  | inconclusive: 25.9 µM [falling, single point] |
| Cc1c(-c2nsc(NC(=O)c3cccs3)n2)nnn1-c1ccc(Br)cc1 |  | inconclusive: 29.1 µM [falling, single point] |
| O=C1C2CC=C(Cl)CC2C(=O)N1CC1Cc2ccccc2CO1 (configuration not stated) | inactive: -4.35% |  |
| O=C1CN(c2nc(-c3ccccc3)c3ccccc3n2)c2ccccc2N1 |  | inconclusive: 6.51 µM [falling, partial curve, poor fit] |
| CCCCNC(=O)NC12CC3CC(CC(C3)C1)C2 |  | inconclusive: 4.61 µM [falling, full curve] |
| C[C@@H]1CN([C@H](C)CO)C(=O)c2cc(NC(=O)Cc3ccccc3)ccc2O[C@H]1CN(C)Cc1ccc(Oc2ccccc2)cc1 |  | inconclusive: 23.1 µM [falling, single point] |
| CC(C)Cc1ccc(C(=O)NCc2ccc3c(c2)OCO3)o1 |  | inconclusive: 16.4 µM [falling, single point] |
| Cc1cc(-c2nnc(SCC(=O)Nc3ccc(C(F)(F)F)cc3)n2C)no1 |  | active: 23.1 µM |
| Cc1cc2c(s1)c1cnn(Cc3c(F)cccc3F)c(=O)c1n2C | inactive: -16% |  |
| Cc1ccccc1C(=O)OC1OC(=O)C(Cl)=C1Nc1ccccc1 (configuration not stated) |  | active: 8.2 µM |
| CCOc1ccc(-n2nc3cc(C)c(N)cc3n2)cc1 |  | inconclusive: 0.366 µM [activator, partial curve, poor fit] |
| COc1cc(/C=C/C(=O)c2ccc3c(c2)OCO3)cc(Cl)c1O |  | inconclusive: 1.64 µM [activator, full curve, poor fit] |
| COc1cc(N)c(C(O)c2nccc3cc(OC)c(OC)cc23)cc1OC (configuration not stated) |  | inconclusive: 13 µM [falling, partial curve, poor fit] |
| O=C(COc1ccccc1-c1nc(-c2ccccc2)no1)Nc1ccccc1[N+](=O)[O-] |  | active: 18.4 µM |
| CCc1ccccc1NCC(=O)Nc1ccc(Cl)c(C(F)(F)F)c1 |  | inconclusive: 29.1 µM [falling, single point] |
| CC(C)(C)c1ccc(C(=O)N2CCN(S(=O)(=O)c3ccc(Br)s3)CC2)cc1 |  | inconclusive: 20.6 µM [falling, partial curve, poor fit] |
| Cn1cc2ccc(-c3ccc4ncnc(NCc5cccs5)c4c3)cc2n1 |  | inconclusive: 1.64 µM [falling, partial curve] |
| CCS(=O)(=O)Nc1cc2c3c(c1)CCC(=O)N3CCC2 | inactive: -15.7% |  |
| CCc1nn(CC(=O)NC(C)c2ccccc2)c(=O)c2cc3sccc3n12 (configuration not stated) | inactive: 4.68% |  |

| SMILES | activity change, negative = inhibition | Potency |
| --- | --- | --- |
| COc1ccccc1NC(=O)c1ccccc1C(=O)Nc1ccccc1OC |  | inconclusive: 32.6 µM [falling, single point] |
| C=CCC[C@H](Cc1ccc(F)cc1)C(=O)OC[C@H](C)NC(=O)[C@H](CC=C)CC(=O)N(CCO)Cc1ccccc1 |  | inconclusive: 29.1 µM [falling, single point] |
| Cc1onc(-c2c(F)cccc2Cl)c1C(=O)Nc1cc(S(=O)(=O)N2CCCCC2)ccc1O |  | inconclusive: 29.1 µM [falling, single point] |
| Cc1ccc(C)c(N2CCN(c3cc(C)nc4c(-c5ccc(Cl)cc5)c(C)nn34)CC2)c1 |  | inconclusive: 23.1 µM [activator, single point] |
| CN(C)c1ccc(/C=N/NC(=O)c2sccc2-n2cccc2)cc1 |  | inconclusive: 16.4 µM [activator, partial curve] |
| COCCCn1c(SCc2ccccc2)nc2cc(OC)c(OC)cc2c1=N |  | inconclusive: 32.6 µM [falling, partial curve, poor fit] |
| CCN(C(=O)CSc1nnc(-c2ccccc2Br)o1)C1CCS(=O)(=O)C1 (configuration not stated) |  | inconclusive: 23.1 µM [falling, partial curve] |
| COc1ccccc1N(C)S(=O)(=O)c1ccc(C(=O)N2CCCc3ccccc32)cc1 |  | inconclusive: 32.6 µM [falling, single point] |
| O=S(=O)(c1cc(Cl)c(Cl)cc1Cl)N1CCN2CCCC2C1 (configuration not stated) |  | inconclusive: 20.6 µM [falling, partial curve, poor fit] |
| Cc1noc(C)c1C(=O)Nc1ccccc1N1CCCC1 | inactive: 1.4% |  |
| Cn1c(=O)c2c(ncn2CC(COCc2ccc(Cl)cc2)OCc2ccc(Cl)cc2)n(C)c1=O (configuration not stated) |  | inconclusive: 20.6 µM [falling, single point] |
| COC(=O)NNC(=O)c1ccc(C(C)(C)C)cc1 |  | inconclusive: 2.06 µM [activator, partial curve] |
| COc1ncnc2sc(-c3ccccc3)cc12 |  | inconclusive: 8.2 µM [activator, partial curve] |
| O=C(Nc1nnc(-c2ccccc2Cl)o1)c1cccnc1 |  | inconclusive: 3.26 µM [activator, single point] |
| O=C(Nc1ccc(N2CCOCC2)c(S(=O)(=O)Nc2ccc(Cl)cc2)c1)c1cnccn1 | inactive: -11.3% |  |
| CCCOc1cccc(-c2cc(-c3n[nH]c(=S)n3CC)c3ccccc3n2)c1 |  | active: 13 µM |
| COc1ccccc1-c1cc(C(F)(F)F)n2ncc(S(=O)(=O)c3ccccc3)c2n1 | inactive: -19.7% |  |
| Cc1nccc(-c2cccc(NC(=O)Nc3ccc(Cl)cc3)c2)n1 |  | inconclusive: 29.1 µM [falling, single point] |
| Nc1nonc1OCCc1ccccc1 |  | inconclusive: 18.4 µM [activator, single point] |
| CC(C)C[C@@H](CSc1ccccc1)N1CCN(C)CCC1=O |  | inconclusive: 11.6 µM [activator, single point] |
| COc1cc(OC)c(NS(=O)(=O)c2ccc3c(c2)NC(=O)CCS3)cc1Cl |  | inconclusive: 1.84 µM [falling, full curve] |
| CCn1nc(C)c(/C=N/NC(=O)Cc2ccc(Cl)cc2)c1C |  | inconclusive: 5.17 µM [activator, full curve] |
| COc1cc2c(c(OC)c1OC)C(=O)C(=Cc1ccccc1)O2 |  | inconclusive: 20.6 µM [activator, single point] |

Looked up above:
Potency, `COC(=O)NNC(=O)c1ccc(C(C)(C)C)cc1` is entered as inconclusive: 2.06 µM [activator, partial curve]
activity change, negative = inhibition, `O=C1C2CC=C(Cl)CC2C(=O)N1CC1Cc2ccccc2CO1` (configuration not stated) is entered as inactive: -4.35%
Potency, `Nc1nonc1OCCc1ccccc1` is entered as inconclusive: 18.4 µM [activator, single point]
Potency, `CC(C)(C)c1ccc(C(=O)N2CCN(S(=O)(=O)c3ccc(Br)s3)CC2)cc1` is entered as inconclusive: 20.6 µM [falling, partial curve, poor fit]
Potency, `O=C1CN(c2nc(-c3ccccc3)c3ccccc3n2)c2ccccc2N1` is entered as inconclusive: 6.51 µM [falling, partial curve, poor fit]

Following part

| SMILES | activity change, negative = inhibition | Potency |
| --- | --- | --- |
| Cn1c(SCC(=O)Nc2ccc(Cl)cc2)nnc1C1CC1 |  | inconclusive: 14.6 µM [falling, partial curve, poor fit] |
| CCOC(=O)c1ccc(NC(=O)C(Cc2ccccc2)NS(=O)(=O)c2ccc(Br)s2)cc1 (configuration not stated) | inactive: 10.3% |  |
| CCOC(=O)c1c(C)oc2nc(C)nc(NCc3ccccc3OCC)c12 |  | inconclusive: 16.4 µM [falling, single point] |
| O=C(Nc1ccccc1)C1CCN(S(=O)(=O)c2ccc3c(c2)OCCO3)CC1 |  | inconclusive: 13 µM [falling, partial curve, poor fit] |
| CC(Nc1cc(N2CCNCC2)ccc1[N+](=O)[O-])c1ccccc1 (configuration not stated) | inactive: -4.75% |  |
| COc1ccc(CCNC(=O)c2ccc3ccccc3n2)cc1 |  | inconclusive: 8.2 µM [activator, partial curve] |
| O=C(OCC(=O)N1CCCCCC1)c1cccs1 |  | inconclusive: 7.31 µM [activator, partial curve, poor fit] |
| CCN(C[C@H]1N[C@@](C)(C(=O)OC)[C@H]2C(=O)N(Cc3ccccc3)C(=O)[C@@H]12)C(=O)COC | inactive: 3.84% |  |
| O=C(Cc1cccs1)N1CCN(S(=O)(=O)c2ccc(F)cc2)CC1 |  | inconclusive: 4.61 µM [falling, partial curve, poor fit] |
| CCOc1cc(N2CCOCC2)c(OCC)cc1NC(=O)COc1cccc2cccnc12 |  | active: 20.6 µM |
| COc1ccc(C2CC(c3c(O)n(C4CCCCC4)c(=O)[nH]c3=O)=Nc3ccccc3S2)cc1 (configuration not stated) |  | inconclusive: 14.6 µM [falling, single point] |
| CSc1ccc(CNCCCSc2ncccn2)cc1 | inactive: 17% |  |
| O=C(CN1CCC(C(=O)c2ccc(F)cc2)CC1)Nc1ccc(F)cc1 |  | inconclusive: 18.4 µM [falling, partial curve, poor fit] |
| C=CCc1ccccc1OCC(O)CN1CCOCC1 (configuration not stated) | inactive: 10.1% |  |
| Cc1c(Cl)cccc1NC(=O)Nc1ccc(C(N)=O)cc1 |  | inconclusive: 6.51 µM [activator, single point] |
| COC(=O)N/N=C\c1cccc(OC(=O)c2cccs2)c1 |  | inconclusive: 0.366 µM [activator, full curve] |
| COCCc1nc2ccc(C(=O)N(C)Cc3cccc(-n4cccn4)c3)cc2o1 |  | inconclusive: 4.11 µM [activator, partial curve, poor fit] |
| O=C(OCC(=O)N1CCCc2ccccc21)c1cc(Br)ccc1O | inactive: -12.8% |  |
| COc1cccc(Oc2ccc(C(F)(F)F)cc2NC(=O)c2cccc(F)c2)c1 | inactive: -28.5% |  |
| CCC(=O)N(CCC1(c2ccccc2OC)CCOC(C(C)C)C1)Cc1ccco1 (configuration not stated) |  | inconclusive: 25.9 µM [falling, single point] |
| Cc1cccc(C)c1NC(=O)CSc1nnc([C@H](C)NC(=O)OC(C)(C)C)o1 |  | inconclusive: 0.146 µM [falling, full curve, poor fit] |
